Paper PMC6497721, “DNA methylation repels targeting of Arabidopsis REF6”
No signal at the amounts used counts as a negative. For some assays here: At least one verdict rests on a figure or table, not on a statement of the authors. For some assays here: For at least one entry, the source does not settle the construct or the ends of the probe. For some assays here: Weaker means in comparison with the reference protein, sequence or condition of that experiment.

The chains behind the UniProt entries cited, without tags or fusion partners. Residues count along the entry.
UniProt Q9STM3, 1239-1360: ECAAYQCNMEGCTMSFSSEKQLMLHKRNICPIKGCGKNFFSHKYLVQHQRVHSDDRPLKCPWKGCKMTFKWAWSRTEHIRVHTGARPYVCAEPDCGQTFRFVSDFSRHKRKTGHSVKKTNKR

Legend:
[1] = target: REF6 ZnF1-4 (Arabidopsis thaliana) (UniProt Q9STM3); experiment: ITC; details: 20 uM ZnCl2, ITC: 20 mM Tris-HCl pH 7.5, 150 mM NaCl, 20 uM ZnCl2, 25 C, recombinant protein, residues 1239-1360, protein details: GST removed by PreScission
[2] = target: GST-REF6C (ZnF1-4) (Arabidopsis thaliana) (UniProt Q9STM3); experiment: EMSA; details: 1 uM ZnSO4, EMSA: 25 mM Tris-HCl pH 8.0, 100 mM NaCl, 2.5 mM MgCl2, 0.1% CA-630, 10% glycerol, 1 uM ZnSO4, 1 mM DTT, on ice, recombinant protein, residues 1239-1360, protein details: N-terminal GST (pGEX-6P-1), label: 5'-32P

TTCTCTGTTTTG (double strand) [NAC004P_5mC5]
binding result ([1]; 5mC at bottom strand position 6): no binding

CTATCAAATCTTCTATCACCACTCTGTTTTATGGCCATCAAATGATTTCG (double strand) [AT4G11710 50-bp 5mC1]
binding result ([2]; 5mC at top strand position 22, letters put together from the description): binds more weakly

GGGAGAATCTCAAACTTTCTCTGTTTTGTCTTTAGAAACTTTGAAATATC (double strand) [NAC004 50-bp 5mC5]
binding result ([2]; 5mC at bottom strand position 28 (opposite top G23), letters put together from the description): no binding

GGGAGAATCTCAAACTTTCTCTGTTTTGTCTTTAGAAACTTTGAAATATC (double strand) [NAC004 50-bp 5mC1+5mC3]
binding result ([2]; 5mC at top strand positions 19 and 21, letters put together from the description): no binding

TTCTCTGTTTTG (double strand) [NAC004P_5mC1+5mC3]
binding result ([1]; 5mC at top strand positions 3 and 5): no binding

CTATCAAATCTTCTATCACCACTCTGTTTTATGGCCATCAAATGATTTCG (double strand) [AT4G11710 50-bp 5mC1+5mC3]
binding result ([2]; 5mC at top strand positions 22 and 24, letters put together from the description): no binding

GGGAGAATCTCAAACTTTCTCTGTTTTGTCTTTAGAAACTTTGAAATATC (double strand) [NAC004 50-bp 5mC1]
binding result ([2]; 5mC at top strand position 19, letters put together from the description): binds more weakly

CTATCAAATCTTCTATCACCACTCTGTTTTATGGCCATCAAATGATTTCG (double strand) [AT4G11710 50-bp 5mC5]
binding result ([2]; 5mC at bottom strand position 25 (opposite top G26), letters put together from the description): no binding

GGGAGAATCTCAAACTTTCTCTGTTTTGTCTTTAGAAACTTTGAAATATC (double strand) [NAC004 50-bp 5mC3]
binding result ([2]; 5mC at top strand position 21, letters put together from the description): binds more weakly

CTATCAAATCTTCTATCACCACTCTGTTTTATGGCCATCAAATGATTTCG (double strand) [AT4G11710 50-bp probe]
binding result [2]: binds

CTATCAAATCTTCTATCACCACTCTGTTTTATGGCCATCAAATGATTTCG (double strand) [AT4G11710 50-bp 5mC3]
binding result ([2]; 5mC at top strand position 24, letters put together from the description): binds more weakly
